{
  "source": "patent US12454550B2",
  "about": "“Compositions and methods for bioorthogonal surface coating” (Rutgers, The State University of New Jersey, priority 2021, dated 2025)",
  "system": "S. aureus",
  "test": "Minimum Inhibitory Concentration (MIC) assay",
  "type": "cell-based",
  "details": "Staphylococcus aureus; in solution, 37° C., 18 to 24 h, n=3",
  "protocol": "A glycerol stock of S. aureus was struck on a tryptic soy agar plate and incubated overnight at 37° C. Single colonies were then picked and diluted into tryptic soy broth (TSB) and left to grow overnight. Next, the culture was diluted approximately 40-fold into fresh TSB and grown to mid-log phase (OD600=0.4 to 0.8). 5 mg/mL stock solutions of Vancomycin-TCO and vancomycin in DMSO were serially diluted two-fold with TBS across the wells of a non-treated 96-well plate, with concentrations ranging from 0.0625 to 128 μg/mL. The mid-log phase cultures were diluted to a final concentration of 5×10^5 colony forming units (CFU)/mL in TSB then 50 μL was added to each antimicrobial-containing well, giving a final antimicrobial concentration range of 0.031 to 64 μg/mL. All the plates were covered and incubated at 37° C. for 18 to 24 h. The MIC was defined as the lowest compound concentration at which no bacterial growth was visible (n=3).",
  "data": [
    {"smiles": "CN[C@H](CC(C)C)C(=O)N[C@H]1C(=O)N[C@@H](CC(N)=O)C(=O)N[C@H]2C(=O)N[C@H]3C(=O)N[C@H](C(=O)N[C@H](C(=O)O)c4cc(O)cc(O)c4-c4cc3ccc4O)[C@H](O)c3ccc(c(Cl)c3)Oc3cc2cc(c3O[C@@H]2O[C@H](CO)[C@@H](O)[C@H](O)[C@H]2O[C@H]2C[C@](C)(N)[C@H](O)[C@H](C)O2)Oc2ccc(cc2Cl)[C@H]1O", "note": "[Vancomycin, reference compound]", "values": [
      {"measurement": "MIC", "result": 1, "unit": "µg/mL"}
    ]}
  ]
}
